Results: patent US20230133118A1, “COMPOSITIONS AND METHODS FOR TREATING CANCER” (Adagene AG, priority 2020, published 2023)
These are yes or no findings as the source states them, for the method shown. Some results given as binding are weak or reduced against the parent protein; the word gives no strength.

Protein sequences, listed by entry. Tags and fused reporters are not part of them. Lines headed by an entry give the natural chain unless they say otherwise; changes in a name come on top. Residues count along the entry.
UniProt Q07011: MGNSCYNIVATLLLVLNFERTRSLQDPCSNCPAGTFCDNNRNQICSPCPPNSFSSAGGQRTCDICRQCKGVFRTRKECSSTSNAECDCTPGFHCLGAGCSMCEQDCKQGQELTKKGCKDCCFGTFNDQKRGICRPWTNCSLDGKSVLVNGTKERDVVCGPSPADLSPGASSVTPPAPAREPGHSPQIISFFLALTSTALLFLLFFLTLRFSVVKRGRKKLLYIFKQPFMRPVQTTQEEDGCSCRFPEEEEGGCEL
UniProt A9YYE7, residues 24-254: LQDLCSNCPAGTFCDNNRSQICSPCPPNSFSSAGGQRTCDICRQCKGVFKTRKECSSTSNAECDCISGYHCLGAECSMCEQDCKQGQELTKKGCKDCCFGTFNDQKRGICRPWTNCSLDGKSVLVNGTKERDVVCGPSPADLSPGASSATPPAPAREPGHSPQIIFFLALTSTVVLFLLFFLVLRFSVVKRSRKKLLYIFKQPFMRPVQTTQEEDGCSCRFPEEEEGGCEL

Key:
[1] = target: human CD137 on cells (human) (UniProt Q07011); experiment: binding to activated T cells; method not described
[2] = target: human CD137 on cells (human) (UniProt Q07011); experiment: binding to activated human T cells (stronger to CD8+ than to CD4+); method not described
[3] = target: cynomolgus monkey CD137 (cynomolgus monkey) (UniProt A9YYE7); experiment: binding to activated cynomolgus monkey T cells (stronger to CD8+ than to CD4+); method not described

Measured: binding

B1: ADG106 (antibody, human IgG4 S228P, kappa, V domains shown)
VH: EVQLVESGGGLVQPGGSLRLSCAASGFSLSTGGVGVGWIRQAPGKGLEWLALIDWADDKYYSPSLKSRLTISRDNSKNTLYLQLNSLRAEDTAVYYCARGGSDTVIGDWFAYWGQGTLVTVSS
VL: DIQLTQSPSSLSASVGDRVTITCRASQSIGSYLAWYQQKPGKAPKLLIYDASNLETGVPSRFSGSGSGTDFTLTISSLQPEDFATYYCQQGYYLWTFGQGTKVEIKR
binds: all assays above
